Variants at the floor of the assay are shown more often than the library holds them.

In one data set the test system is biotinyl-Trp-oxazolone. Nature of the data set: self-aminoacylation, catalytic enhancement (BWO) (fold over background); higher = more active; k-Seq, kA / k0A0; sequences stand for … in GGGAAUGGAUCCACAUCUACGAAUUC…UUCACUGCAGACUUGACGAAGCUG
An outline of the steps: (§1)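 Mutagenized RNA pools (0.43 μM; 21-nt variable region) were treated with 2–1250 μM of each biotinyl-aminoacyl-oxazolone. Conditions were 50 μL HEPES/NaCl/KCl/MgCl2/CaCl2 buffer, 5% acetonitrile, pH 6.9–7.0, room temperature, 90 minutes. Catalytic enhancement, the median kA relative to the uncatalyzed rate, was derived from streptavidin capture, qPCR and Illumina sequencing.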

The subject of another data set is biotinyl-Leu-oxazolone. Nature of the data set: self-aminoacylation, catalytic enhancement (BLO) (fold over background); higher = more active; k-Seq, kA / k0A0; sequences stand for … in GGGAAUGGAUCCACAUCUACGAAUUC…UUCACUGCAGACUUGACGAAGCUG
Put shortly:
as §1

A further data set relates to biotinyl-Val-oxazolone. Nature of the data set: self-aminoacylation, catalytic enhancement (BVO) (fold over background); higher = more active; k-Seq, kA / k0A0; sequences stand for … in GGGAAUGGAUCCACAUCUACGAAUUC…UUCACUGCAGACUUGACGAAGCUG
An outline of the steps: as §1

A further data set deals with biotinyl-Ile-oxazolone. Nature of the data set: self-aminoacylation, catalytic enhancement (BIO) (fold over background); higher = more active; k-Seq, kA / k0A0; sequences stand for … in GGGAAUGGAUCCACAUCUACGAAUUC…UUCACUGCAGACUUGACGAAGCUG
An outline of the steps: as §1

For another data set, the system named is biotinyl-Met-oxazolone. Description: self-aminoacylation, catalytic enhancement (BMO) (fold over background); higher = more active; k-Seq, kA / k0A0; sequences stand for … in GGGAAUGGAUCCACAUCUACGAAUUC…UUCACUGCAGACUUGACGAAGCUG
An outline of the steps: as §1

For the next data set, the system named is biotinyl-Phe-oxazolone. Nature of the data set: self-aminoacylation, catalytic enhancement (BFO) (fold over background); higher = more active; k-Seq, kA / k0A0; sequences stand for … in GGGAAUGGAUCCACAUCUACGAAUUC…UUCACUGCAGACUUGACGAAGCUG
An outline of the steps: as §1

As for “AUUACCCUGGUCAUCGAGAGG [Fam2.1 aminoacylation ribozyme variant]”, the self-aminoacylation with biotinyl-Trp-oxazolone is 0.95; with biotinyl-Leu-oxazolone it was 1.18; in the data set with biotinyl-Val-oxazolone, 1.08; in the data set with biotinyl-Ile-oxazolone it was 0.663; in the data set on biotinyl-Met-oxazolone, 1.45.
The like results for “AAGUUAGCUGAUAGUCGCAAG [Fam3.1 aminoacylation ribozyme variant]” were, in that order, 1.9, 1.86, 1.81, 1.66 and 1.28.
Turning to “AAGGUUGCUGAUAGUCGCAAG [Fam3.1 aminoacylation ribozyme variant]”, the self-aminoacylation was 1.44 in the data set on biotinyl-Trp-oxazolone; 1.33 in the data set on biotinyl-Leu-oxazolone; 1.43 in the data set with biotinyl-Val-oxazolone; 1.71 in the data set on biotinyl-Ile-oxazolone; 1.1 with biotinyl-Met-oxazolone.
As to “UCACACUUCAAGCAAUCGCUC [Fam1B.1 aminoacylation ribozyme variant]”, the self-aminoacylation in the data set on biotinyl-Trp-oxazolone is 1.45; in the data set with biotinyl-Leu-oxazolone, 1.3; in the data set on biotinyl-Val-oxazolone, 1.32; with biotinyl-Ile-oxazolone it was 1.43; with biotinyl-Met-oxazolone, 1.46.
Take “AUUACCCUGGGCAUCGUGUGA [Fam2.1 aminoacylation ribozyme variant]”: the self-aminoacylation with biotinyl-Trp-oxazolone was 1.93; in the data set with biotinyl-Leu-oxazolone it was 1.58; with biotinyl-Val-oxazolone it was 0.981; with biotinyl-Ile-oxazolone, 0.861; in the data set on biotinyl-Met-oxazolone, 1.09.
As to “CCACACUUCAAGCAAUCGGCU [Fam1B.1 aminoacylation ribozyme variant]”, the self-aminoacylation in the data set on biotinyl-Val-oxazolone is 1.96; with biotinyl-Ile-oxazolone it was 1.75; in the data set with biotinyl-Met-oxazolone it was 1.56; in the data set on biotinyl-Phe-oxazolone, 1.64.
“AUGCACCUAGGUCAUCGGGUC [Fam2.2 aminoacylation ribozyme variant]”: the self-aminoacylation was 1.96 in the data set with biotinyl-Trp-oxazolone; 1.28 in the data set with biotinyl-Leu-oxazolone; 1.64 in the data set with biotinyl-Val-oxazolone; 1.26 in the data set with biotinyl-Ile-oxazolone; 1.05 in the data set with biotinyl-Met-oxazolone.
The like results for “AUUAACCUAGGUCAUCGUGUG [Fam2.2 aminoacylation ribozyme variant]” were, in that order, 0.605, 0.935, 0.862, 0.901 and 1.03.
Take “CCACACUUCAAACAACCGGUC [Fam1B.1 aminoacylation ribozyme variant]”: the self-aminoacylation with biotinyl-Trp-oxazolone was determined as 1.6; with biotinyl-Leu-oxazolone, 0.847; in the data set on biotinyl-Val-oxazolone, 0.807; with biotinyl-Ile-oxazolone, 1.21; in the data set on biotinyl-Met-oxazolone it was 0.819.
Taken in the same sequence, the figures for “ACGUUUCCUAAUAGUCGCAAG [Fam3.1 aminoacylation ribozyme variant]” were 1.3, 1.08, 1.21, 1.61 and 1.33.
As to “AAGUUUGCUAAUAGGUGCAAG [Fam3.1 aminoacylation ribozyme variant]”, the self-aminoacylation came out at 0.526 in the data set with biotinyl-Trp-oxazolone; 0.609 with biotinyl-Leu-oxazolone; 0.836 in the data set with biotinyl-Val-oxazolone; 0.728 with biotinyl-Ile-oxazolone; 0.706 in the data set on biotinyl-Met-oxazolone.
Take “AAGUUUACUAAUAGUCGAAAG [Fam3.1 aminoacylation ribozyme variant]”: the self-aminoacylation with biotinyl-Trp-oxazolone is 1.08; with biotinyl-Leu-oxazolone, 1.37; in the data set on biotinyl-Val-oxazolone, 1.44; in the data set with biotinyl-Ile-oxazolone, 1.31; in the data set on biotinyl-Met-oxazolone it was 1.01.
The like results for “CUACUGCAAACAAUCGGUCCG [Fam1A.1 aminoacylation ribozyme variant]” were, in that order, 1.51, 1.29, 1.11, 1.38 and 1.25.
The like results for “AAGGUUGCCAAUAGUCGCAAG [Fam3.1 aminoacylation ribozyme variant]” were, in that order, 1.53, 1.72, 1.5, 1.54 and 1.27.
Consider “AGUACCCUGGUCAUCGCGUGA [Fam2.1 aminoacylation ribozyme variant]”, for which the self-aminoacylation came to 20.5 with biotinyl-Trp-oxazolone; 20.3 in the data set with biotinyl-Leu-oxazolone; 12.2 in the data set with biotinyl-Val-oxazolone; 8.36 with biotinyl-Ile-oxazolone; 19.4 in the data set with biotinyl-Met-oxazolone.
Consider “UAUUUUGCUAAUAGUCGCAAG [Fam3.1 aminoacylation ribozyme variant]”, for which the self-aminoacylation stood at 1.47 in the data set with biotinyl-Trp-oxazolone; 1.31 in the data set on biotinyl-Leu-oxazolone; 1.52 with biotinyl-Val-oxazolone; 1.75 in the data set on biotinyl-Ile-oxazolone; 1.65 in the data set with biotinyl-Met-oxazolone.
For “CCACACGUCAAGCAAUCGCUC [Fam1B.1 aminoacylation ribozyme variant]”, the self-aminoacylation in the data set with biotinyl-Trp-oxazolone worked out at 1.89; with biotinyl-Leu-oxazolone, 1.66; in the data set on biotinyl-Ile-oxazolone it was 1.91; with biotinyl-Phe-oxazolone, 1.58.
For “AAGAUUGCUGAUAGUCGCAAG [Fam3.1 aminoacylation ribozyme variant]”, the self-aminoacylation in the data set with biotinyl-Trp-oxazolone was found to be 1.53; with biotinyl-Leu-oxazolone, 1.94; with biotinyl-Val-oxazolone, 1.53; with biotinyl-Ile-oxazolone, 1.85; with biotinyl-Met-oxazolone, 1.56.
As to “AUUCACGUAGGUCAUCGGGAG [Fam2.2 aminoacylation ribozyme variant]”, the self-aminoacylation with biotinyl-Trp-oxazolone was found to be 1.91; in the data set on biotinyl-Leu-oxazolone, 1.94; with biotinyl-Ile-oxazolone, 1.49; with biotinyl-Phe-oxazolone, 0.881.
Regarding “AUUCACCUAGGUCGUCGGGUC [Fam2.2 aminoacylation ribozyme variant]”, the self-aminoacylation with biotinyl-Trp-oxazolone stood at 1.01; with biotinyl-Leu-oxazolone, 1.55; with biotinyl-Val-oxazolone it was 1.43; in the data set with biotinyl-Ile-oxazolone it was 1.17; in the data set on biotinyl-Met-oxazolone it was 1.4.
Taken in the same sequence, the figures for “AAGUUGGCUAAUAGUCGCCAG [Fam3.1 aminoacylation ribozyme variant]” were 1.15, 1.33, 1.44, 1.76 and 1.38.
The like results for “AUUCGUCUAGGUCAUCGGGUG [Fam2.2 aminoacylation ribozyme variant]” were, in that order, 6.11, 5.27, 4.85, 4.9 and 4.96.
Taken in the same sequence, the figures for “CUACCCUUCAAGCAAUCGGUC [Fam1B.1 aminoacylation ribozyme variant]” were 5.52, 1.02, 1.03, 1.04 and 0.817.
For the sequence “CCACACUUCAAGCAGUCGGGC [Fam1B.1 aminoacylation ribozyme variant]”, the self-aminoacylation came to 1.52 with biotinyl-Trp-oxazolone and 1.88 in the data set with biotinyl-Phe-oxazolone.
For the sequence “AUUACCCUGGUGAUCGUGUGA [Fam2.1 aminoacylation ribozyme variant]”, the self-aminoacylation in the data set with biotinyl-Trp-oxazolone came out at 1.99; with biotinyl-Leu-oxazolone, 1.67; in the data set on biotinyl-Val-oxazolone it was 1.21; with biotinyl-Ile-oxazolone, 1.34; in the data set on biotinyl-Met-oxazolone it was 1.48.
Taken in the same sequence, the figures for “AUUCUCCUAGGUCAUCGGGUC [Fam2.2 aminoacylation ribozyme variant]” were 1.52, 1.73, 1.72, 1.65 and 1.64.

These data come from the supplement of paper PMC9233669.
